Test results published in PubChem BioAssay AID2685 (National Center for Advancing Translational Sciences (NCATS), 2010).
The other results are listed elsewhere or left out. Further columns of the screen follow, without active or inactive calls. Compounds called inactive in the main read-out are mostly missing here. Potencies come from curve fits of mixed quality, noted in brackets.

Test: qHTS Assay for Lipid Storage Modulators in Drosophila S3 Cells;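 as to cell number change: cells counted by Cell Tracker Red CMTPX staining in the red channel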
Details: BODIPY lipid droplet fluorescence, 18-24 h; for cell number change: measured here: cell count max response, cells fed with added oleic acid
Outline: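 Laser-scanning cytometry quantifies lipid droplet accumulation (500–530 nm total intensity; droplet/cell object ratio) in oleic acid-fed (400 uM added) Drosophila S3 cells treated with a concentration series. 20 uM Triacsin C defined 100% inhibition.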

[1] = measured here: lipid fluorescence (Fed channel) AC50, cells fed with added oleic acid
[2] = measured here: cell number channel AC50, cells fed with added oleic acid

| SMILES | cell number change [%] | AC50 [1] | AC50 [2] |
| --- | --- | --- | --- |
| COc1ccccc1NC(=O)CCC(=O)N/N=C(/C)c1ccc(C)cc1 | 5.53 | 29.1 µM [rising, single point] | – |
| O=C(Cc1ccc2c(c1)OCCO2)Nc1cc(C(F)(F)F)ccc1N1CCOCC1 | 94 | – | 20.6 µM [rising, partial curve] |
| O=C(Nc1ccc(Cl)c(Cl)c1)OCCNC(=O)c1cccc(Cl)c1 | -14.3 | 11.6 µM [rising, partial curve] | – |
| O=C(Nc1ncccn1)c1cc(-c2cccc(Br)c2)nc2ccccc12 | 16.7 | – | – |
| NCC12CC3CC(C1)CC(CN)(C3)C2 | 0.0893 | 6.51 µM [falling, single point] | – |
| Cc1nn(CC(=O)Nc2c(F)c(F)cc(F)c2F)c(=O)c2cccn12 | 2.14 | 0.58 µM [falling, single point] | – |
| COc1ccc(NC2=CC(=O)CC(c3ccccc3)C2)c(OC)c1 (stereo unspecified) | 12.3 | 5.8 µM [rising, single point] | – |
| CC(=O)CSc1ncnc2sc3c(c12)CCC(C)C3 (stereo unspecified) | 8.2 | 1.84 µM [rising, partial curve, poor fit] | – |
| COc1ccc(-c2csc(Nc3ccc(S(=O)(=O)Nc4cc(OC)nc(OC)n4)cc3)n2)cc1 | 19.4 | 20.6 µM [rising, partial curve, poor fit] | – |
| CC(C(=O)NC1C=CS(=O)(=O)C1)N1C(=O)/C(=C\c2ccccc2)SC1=S (stereo unspecified) | 8.02 | – | 6.51 µM [falling, single point] |
| CC1CCCN(C(=O)c2ccncc2)C1 (stereo unspecified) | -172 | – | 23.1 µM [falling, partial curve] |
| Cn1ccc2ccc(C3=CC(=O)C[C@H](c4ccc(F)cc4)C3)cc21 | -20.8 | 4.61 µM [falling, partial curve] | – |
| CC(NC(=O)COC(=O)CCc1ccc(S(=O)(=O)N2CCOCC2)cc1)C1CC2CCC1C2 (stereo unspecified) | -22.5 | 0.00461 µM [falling, full curve, poor fit] | – |
| CCCCCn1c(=O)[nH]c2cc(C(=O)NCCN3CCCCC3C)ccc2c1=O (stereo unspecified) | 3.42 | 29.1 µM [falling, single point] | – |
| CSc1nsc(/C=C/Nc2ccc(C)cc2)c1C#N | -41.8 | 2.31 µM [falling, partial curve] | 2.31 µM [falling, partial curve, poor fit] |
| CC1CCN(S(=O)(=O)c2cn(CC(=O)Nc3ccc(OC(F)(F)F)cc3)cn2)CC1 | 10.1 | 6.51 µM [rising, partial curve, poor fit] | – |
| Cn1c(=O)c(=O)n(C)c2cc(S(=O)(=O)Nc3ccc(OC(F)(F)F)cc3)ccc21 | 23 | 20.6 µM [rising, single point] | – |
| O=C(Nc1cccc(S(=O)(=O)NC2=NCCCCC2)c1)c1cc(-c2ccccc2)nc2ccccc12 | 55.3 | – | 14.6 µM [rising, partial curve] |
| COc1ccc(-c2csc(NC(=O)c3ccccc3NS(=O)(=O)c3ccc(C)cc3)n2)cc1 | -39.3 | 2.59 µM [falling, full curve] | 16.4 µM [falling, single point] |
| COc1ccc(OCc2cc(C(=O)NC(C)Cc3cccnc3)no2)c(Cl)c1 (stereo unspecified) | 14.5 | 7.31 µM [falling, partial curve] | – |
| O=C1C=CC(=O)N1CCNc1ncc(C(F)(F)F)cc1Cl | -16 | 4.61 µM [falling, full curve] | 2.91 µM [falling, single point] |
| O=C(NCc1cccnc1)c1cccc(S(=O)(=O)Nc2cccc(Cl)c2)c1 | -13.3 | – | 3.26 µM [rising, single point] |
| O=C(NCC(=O)N(c1cccc(F)c1)C(C(=O)NC1CCCC1)c1cccnc1)c1cccs1 (stereo unspecified) | – | – | 0.146 µM [falling, full curve, poor fit] |
| COc1ccc(NC(=O)[C@H](C)NC(N)=O)cc1S(=O)(=O)Nc1cc(C)ccc1Br | – | 0.00411 µM [falling, full curve, poor fit] | – |
| Cc1ccc(SCC(=O)N2c3ccccc3Sc3ccccc32)cc1 | – | 4.11 µM [falling, single point] | – |
| O=C(c1ccco1)N1CCN(C(=O)c2ccc(CS(=O)c3ccc(F)cc3)o2)CC1 (stereo unspecified) | -2.42 | 16.4 µM [falling, single point] | – |
| COc1ccc(/C=C/C(=O)NCCSCc2ccco2)cc1 | 7.65 | 29.1 µM [rising, single point] | – |
| COCCCn1c(-c2ccccc2Cl)n[nH]c1=S | 13.3 | – | – |
| Cc1nc2c(ccc3c([N+](=O)[O-])cccc32)c(C)c1C | – | 0.231 µM [rising, full curve] | – |
| CC1(C2CC2)NC(=O)N(CC(=O)N2CCN(c3ccc(F)cc3)CC2)C1=O (stereo unspecified) | – | 18.4 µM [falling, partial curve, poor fit] | – |

Complete entries as entered above. Order of values: cell number change [%] | AC50 [1] | AC50 [2]
CC(=O)CSc1ncnc2sc3c(c12)CCC(C)C3 (stereo unspecified) is listed as 8.2 | 1.84 µM [rising, partial curve, poor fit] | –
CC(C(=O)NC1C=CS(=O)(=O)C1)N1C(=O)/C(=C\c2ccccc2)SC1=S (stereo unspecified) is listed as 8.02 | – | 6.51 µM [falling, single point]
